Results are given in words; binding and its absence hold for the method and conditions named.
Molecular target: fusion protein of GluA3-ATD and rsEGFP2 (rsEGFP2-GluA3) (UniProt P19492)
Experiment: AUC; FDS-SV in blinking configuration, rsEGFP2-GluA3 at concentrations between 1 nM and 30 nM, 50,000 rpm, 20°C; 0.1 mg/ml unlabeled BSA added; both purified

By UniProt entry, the sequences of proteins in these tests, tags left out. Residues count along the entry.
UniProt P19492, residues 23-408: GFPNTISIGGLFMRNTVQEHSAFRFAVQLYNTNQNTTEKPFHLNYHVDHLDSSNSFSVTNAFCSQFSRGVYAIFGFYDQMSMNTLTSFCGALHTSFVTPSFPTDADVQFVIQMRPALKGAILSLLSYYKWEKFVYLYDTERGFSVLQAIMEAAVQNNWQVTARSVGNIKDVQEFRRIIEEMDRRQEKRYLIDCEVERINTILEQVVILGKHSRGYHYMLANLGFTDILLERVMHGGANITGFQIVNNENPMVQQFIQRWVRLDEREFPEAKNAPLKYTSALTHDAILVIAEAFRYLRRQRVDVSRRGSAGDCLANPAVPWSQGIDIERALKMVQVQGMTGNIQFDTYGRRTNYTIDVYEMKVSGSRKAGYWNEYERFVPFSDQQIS

## fusion protein of GluA3-ATD and rsEGFP2 (rsEGFP2-GluA3) (from UniProt P19492 23-408) (domain or fragment)
  binding: no binding (tested: up to 30 nM)

Source: PMC4985284, “Monochromatic multicomponent fluorescence sedimentation velocity for the study of high-affinity protein interactions” (eLife, 2016)
